Assay results from the supplement of paper PMC12823440, “Inhibitors supercharge kinase turnover through native proteolytic circuits” (Nature, 2025).
Structures can show the parent of a compound that is named as a salt. The list shows a part of the results. The calls rarely recur for the same compound in another form.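 Kinases, fused to nanoluciferase, were expressed in K562 cells; luminescence was measured every 4 h from 2 to 18 h as percent of control (DMSO = 100%, positive control = 0%). A time point is decreased if signal falls significantly (2 sigma). Hits were called by the authors by a rule that is not shown; the count of time points alone does not decide it.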

The chains behind the UniProt entries cited, without tags or fusion partners. Where a name states a change or a piece, a line headed by the entry shows the natural chain unless it says otherwise.
UniProt P31152, whole entry: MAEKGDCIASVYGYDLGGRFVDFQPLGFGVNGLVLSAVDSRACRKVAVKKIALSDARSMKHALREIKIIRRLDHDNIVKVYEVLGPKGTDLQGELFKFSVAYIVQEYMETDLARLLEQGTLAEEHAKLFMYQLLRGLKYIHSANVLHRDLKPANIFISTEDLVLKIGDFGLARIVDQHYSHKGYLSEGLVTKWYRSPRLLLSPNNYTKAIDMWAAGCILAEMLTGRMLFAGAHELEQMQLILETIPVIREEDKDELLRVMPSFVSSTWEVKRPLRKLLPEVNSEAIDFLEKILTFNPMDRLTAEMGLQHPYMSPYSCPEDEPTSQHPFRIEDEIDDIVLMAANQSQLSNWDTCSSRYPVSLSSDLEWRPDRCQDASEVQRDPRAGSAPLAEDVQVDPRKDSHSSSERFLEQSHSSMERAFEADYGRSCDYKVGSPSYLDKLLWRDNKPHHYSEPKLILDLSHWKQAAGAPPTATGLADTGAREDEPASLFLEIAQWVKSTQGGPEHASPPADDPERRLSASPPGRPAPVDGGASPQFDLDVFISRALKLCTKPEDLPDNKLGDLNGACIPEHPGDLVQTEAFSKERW
UniProt Q16288, whole entry, looked up: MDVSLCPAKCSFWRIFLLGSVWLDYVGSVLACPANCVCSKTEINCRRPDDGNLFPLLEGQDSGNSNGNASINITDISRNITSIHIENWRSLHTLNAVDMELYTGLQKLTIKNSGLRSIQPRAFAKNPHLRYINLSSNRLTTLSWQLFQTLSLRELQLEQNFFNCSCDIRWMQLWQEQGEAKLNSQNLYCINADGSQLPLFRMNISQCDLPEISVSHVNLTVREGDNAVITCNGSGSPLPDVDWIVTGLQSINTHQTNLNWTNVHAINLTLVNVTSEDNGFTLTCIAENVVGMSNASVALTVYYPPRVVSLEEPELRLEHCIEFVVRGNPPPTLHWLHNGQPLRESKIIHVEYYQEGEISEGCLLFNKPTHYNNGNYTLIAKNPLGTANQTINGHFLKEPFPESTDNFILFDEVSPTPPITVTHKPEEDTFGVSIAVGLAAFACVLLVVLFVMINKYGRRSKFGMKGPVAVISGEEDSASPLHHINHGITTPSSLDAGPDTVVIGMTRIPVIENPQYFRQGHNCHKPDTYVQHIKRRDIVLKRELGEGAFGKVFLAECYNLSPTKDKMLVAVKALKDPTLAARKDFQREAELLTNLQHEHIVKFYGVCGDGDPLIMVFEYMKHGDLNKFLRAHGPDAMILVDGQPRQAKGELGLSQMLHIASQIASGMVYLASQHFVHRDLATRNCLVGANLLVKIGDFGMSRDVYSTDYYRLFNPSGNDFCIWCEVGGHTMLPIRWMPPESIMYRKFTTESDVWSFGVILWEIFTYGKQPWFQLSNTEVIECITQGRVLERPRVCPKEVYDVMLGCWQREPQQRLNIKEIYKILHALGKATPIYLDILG
UniProt Q96KB5: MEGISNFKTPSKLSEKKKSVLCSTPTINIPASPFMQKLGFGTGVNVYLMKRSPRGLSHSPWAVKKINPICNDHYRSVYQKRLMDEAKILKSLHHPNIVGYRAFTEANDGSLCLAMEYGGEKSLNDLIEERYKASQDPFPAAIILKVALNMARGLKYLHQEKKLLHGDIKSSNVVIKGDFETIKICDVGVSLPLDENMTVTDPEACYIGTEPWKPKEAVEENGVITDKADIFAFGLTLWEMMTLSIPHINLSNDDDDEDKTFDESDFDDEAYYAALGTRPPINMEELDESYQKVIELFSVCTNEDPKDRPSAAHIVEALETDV
UniProt P42356, whole entry, looked up: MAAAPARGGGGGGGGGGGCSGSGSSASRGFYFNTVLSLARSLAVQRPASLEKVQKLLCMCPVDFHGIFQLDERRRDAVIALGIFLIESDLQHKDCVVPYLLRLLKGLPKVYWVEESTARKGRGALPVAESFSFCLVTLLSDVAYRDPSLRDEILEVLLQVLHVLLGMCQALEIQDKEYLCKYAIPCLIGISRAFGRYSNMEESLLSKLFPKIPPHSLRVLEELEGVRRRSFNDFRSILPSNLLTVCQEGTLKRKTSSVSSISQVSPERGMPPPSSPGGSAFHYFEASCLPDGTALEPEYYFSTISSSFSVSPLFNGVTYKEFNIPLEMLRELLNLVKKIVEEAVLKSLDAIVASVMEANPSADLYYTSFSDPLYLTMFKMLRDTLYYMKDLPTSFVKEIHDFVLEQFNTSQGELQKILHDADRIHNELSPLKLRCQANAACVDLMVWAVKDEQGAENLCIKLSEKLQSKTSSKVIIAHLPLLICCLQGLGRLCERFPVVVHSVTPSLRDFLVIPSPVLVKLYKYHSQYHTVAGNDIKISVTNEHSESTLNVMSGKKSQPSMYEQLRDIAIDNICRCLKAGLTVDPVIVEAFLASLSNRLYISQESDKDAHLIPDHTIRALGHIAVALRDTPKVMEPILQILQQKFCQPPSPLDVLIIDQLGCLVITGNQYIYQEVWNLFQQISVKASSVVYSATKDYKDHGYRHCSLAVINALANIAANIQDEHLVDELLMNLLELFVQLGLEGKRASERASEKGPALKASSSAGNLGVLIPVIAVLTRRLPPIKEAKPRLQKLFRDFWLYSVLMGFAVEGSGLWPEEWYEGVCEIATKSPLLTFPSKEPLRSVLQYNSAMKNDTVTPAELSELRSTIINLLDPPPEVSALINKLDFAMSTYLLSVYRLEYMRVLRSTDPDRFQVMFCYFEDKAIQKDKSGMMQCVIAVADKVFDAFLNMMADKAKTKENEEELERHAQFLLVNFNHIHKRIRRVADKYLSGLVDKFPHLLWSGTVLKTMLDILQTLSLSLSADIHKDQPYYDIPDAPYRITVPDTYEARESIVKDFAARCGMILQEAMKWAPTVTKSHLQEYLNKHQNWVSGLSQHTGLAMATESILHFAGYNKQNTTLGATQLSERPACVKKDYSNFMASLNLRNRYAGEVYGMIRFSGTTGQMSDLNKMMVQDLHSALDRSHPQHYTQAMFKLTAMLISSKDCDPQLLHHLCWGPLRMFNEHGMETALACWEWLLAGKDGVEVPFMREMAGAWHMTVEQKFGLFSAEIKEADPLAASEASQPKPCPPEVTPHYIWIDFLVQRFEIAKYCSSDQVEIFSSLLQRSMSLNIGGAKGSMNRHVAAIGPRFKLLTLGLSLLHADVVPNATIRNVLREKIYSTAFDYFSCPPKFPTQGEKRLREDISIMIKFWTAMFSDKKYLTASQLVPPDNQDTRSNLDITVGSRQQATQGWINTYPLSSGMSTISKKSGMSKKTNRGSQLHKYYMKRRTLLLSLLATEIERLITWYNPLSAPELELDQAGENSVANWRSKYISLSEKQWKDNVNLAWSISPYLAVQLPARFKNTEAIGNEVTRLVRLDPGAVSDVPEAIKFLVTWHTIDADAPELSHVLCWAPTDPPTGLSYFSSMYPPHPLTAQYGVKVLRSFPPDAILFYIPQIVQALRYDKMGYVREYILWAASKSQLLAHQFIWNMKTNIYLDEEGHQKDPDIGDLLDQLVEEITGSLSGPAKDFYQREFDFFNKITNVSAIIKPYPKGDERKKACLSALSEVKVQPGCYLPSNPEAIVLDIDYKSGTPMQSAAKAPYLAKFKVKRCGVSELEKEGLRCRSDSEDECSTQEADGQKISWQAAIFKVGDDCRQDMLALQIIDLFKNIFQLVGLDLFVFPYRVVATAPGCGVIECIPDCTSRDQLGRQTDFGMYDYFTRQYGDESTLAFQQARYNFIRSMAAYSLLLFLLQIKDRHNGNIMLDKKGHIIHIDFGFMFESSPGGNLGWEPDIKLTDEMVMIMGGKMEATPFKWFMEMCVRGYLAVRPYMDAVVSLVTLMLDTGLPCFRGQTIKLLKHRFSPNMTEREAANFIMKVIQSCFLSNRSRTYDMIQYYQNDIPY
UniProt Q9UBF8: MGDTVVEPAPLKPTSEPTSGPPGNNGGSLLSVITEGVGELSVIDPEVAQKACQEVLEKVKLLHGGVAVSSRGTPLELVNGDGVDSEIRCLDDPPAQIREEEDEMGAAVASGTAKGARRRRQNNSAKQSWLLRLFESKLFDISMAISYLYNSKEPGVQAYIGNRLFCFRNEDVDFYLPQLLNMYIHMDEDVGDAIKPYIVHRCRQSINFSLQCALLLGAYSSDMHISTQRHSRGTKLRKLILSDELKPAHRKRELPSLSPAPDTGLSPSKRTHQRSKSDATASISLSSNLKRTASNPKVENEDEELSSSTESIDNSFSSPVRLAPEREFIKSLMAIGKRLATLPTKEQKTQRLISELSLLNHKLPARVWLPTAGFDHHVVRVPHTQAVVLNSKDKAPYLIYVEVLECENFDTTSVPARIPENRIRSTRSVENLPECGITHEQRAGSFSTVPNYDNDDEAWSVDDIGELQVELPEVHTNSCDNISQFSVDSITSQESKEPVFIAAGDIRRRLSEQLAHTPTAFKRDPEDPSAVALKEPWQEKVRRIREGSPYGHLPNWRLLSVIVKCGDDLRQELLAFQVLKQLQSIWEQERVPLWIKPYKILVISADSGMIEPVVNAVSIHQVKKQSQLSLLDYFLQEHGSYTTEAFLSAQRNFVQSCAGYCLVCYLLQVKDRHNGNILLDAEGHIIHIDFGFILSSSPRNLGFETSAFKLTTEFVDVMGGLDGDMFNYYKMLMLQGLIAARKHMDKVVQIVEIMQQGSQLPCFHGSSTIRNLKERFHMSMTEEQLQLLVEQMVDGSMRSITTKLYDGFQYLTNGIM
UniProt P53350, whole entry: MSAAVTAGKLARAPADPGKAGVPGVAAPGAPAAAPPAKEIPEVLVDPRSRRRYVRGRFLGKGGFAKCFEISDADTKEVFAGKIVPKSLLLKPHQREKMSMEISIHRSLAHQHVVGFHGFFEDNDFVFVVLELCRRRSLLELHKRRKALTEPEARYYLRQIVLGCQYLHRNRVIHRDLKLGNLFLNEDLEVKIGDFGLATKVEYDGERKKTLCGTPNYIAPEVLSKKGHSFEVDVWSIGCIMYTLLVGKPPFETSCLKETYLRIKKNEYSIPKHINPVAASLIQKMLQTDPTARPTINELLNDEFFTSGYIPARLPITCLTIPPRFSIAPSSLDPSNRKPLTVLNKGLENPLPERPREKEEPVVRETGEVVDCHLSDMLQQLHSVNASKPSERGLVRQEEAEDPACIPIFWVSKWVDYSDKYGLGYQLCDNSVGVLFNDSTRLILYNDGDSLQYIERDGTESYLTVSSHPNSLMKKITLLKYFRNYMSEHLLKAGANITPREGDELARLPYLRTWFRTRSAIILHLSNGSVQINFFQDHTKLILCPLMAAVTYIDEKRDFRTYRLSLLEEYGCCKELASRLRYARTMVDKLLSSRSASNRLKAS
UniProt Q05397, whole entry, looked up: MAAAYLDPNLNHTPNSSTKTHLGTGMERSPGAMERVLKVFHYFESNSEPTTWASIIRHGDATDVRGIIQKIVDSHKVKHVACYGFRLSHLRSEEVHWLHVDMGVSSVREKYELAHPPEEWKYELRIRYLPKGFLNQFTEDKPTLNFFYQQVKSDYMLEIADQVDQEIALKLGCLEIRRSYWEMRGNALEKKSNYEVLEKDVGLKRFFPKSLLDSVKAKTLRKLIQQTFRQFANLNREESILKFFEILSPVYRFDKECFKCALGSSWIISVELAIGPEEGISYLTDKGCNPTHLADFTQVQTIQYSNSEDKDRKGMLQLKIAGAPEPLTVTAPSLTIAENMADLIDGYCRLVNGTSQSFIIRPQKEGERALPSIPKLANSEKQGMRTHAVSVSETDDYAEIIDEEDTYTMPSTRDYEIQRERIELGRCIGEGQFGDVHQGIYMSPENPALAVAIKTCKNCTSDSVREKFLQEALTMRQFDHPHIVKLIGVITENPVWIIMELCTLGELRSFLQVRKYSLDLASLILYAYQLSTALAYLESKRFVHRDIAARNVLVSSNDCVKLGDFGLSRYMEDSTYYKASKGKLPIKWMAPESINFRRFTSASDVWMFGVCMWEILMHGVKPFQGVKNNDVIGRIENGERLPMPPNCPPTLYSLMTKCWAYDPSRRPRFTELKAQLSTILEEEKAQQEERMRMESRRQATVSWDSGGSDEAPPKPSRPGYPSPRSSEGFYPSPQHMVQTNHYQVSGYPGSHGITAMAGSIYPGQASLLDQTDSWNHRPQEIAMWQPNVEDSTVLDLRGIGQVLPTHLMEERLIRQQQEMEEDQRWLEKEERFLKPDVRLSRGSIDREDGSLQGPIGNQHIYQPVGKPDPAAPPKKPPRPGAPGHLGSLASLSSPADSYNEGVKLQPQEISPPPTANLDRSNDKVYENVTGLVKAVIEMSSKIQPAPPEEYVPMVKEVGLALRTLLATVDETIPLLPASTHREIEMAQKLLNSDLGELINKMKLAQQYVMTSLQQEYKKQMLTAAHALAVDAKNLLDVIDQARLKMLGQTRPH

Columns and labels:
Assay in all cases: kinase-Nluc reporter destabilization hit call (1 = scored as downregulated) (binary); higher = compound decreases kinase abundance
Conditions in all cases: K562; 2-18 h
MAPK1 = MAPK1 (UniProt P28482)
MAPK4 = MAPK4 (UniProt P31152)
MAPKAPK2 = MAPKAPK2 (UniProt P49137)
MKNK1 = MKNK1 (UniProt Q9BUB5)
NTRK2 = NTRK2 (UniProt Q16620)
NTRK3 = NTRK3 (UniProt Q16288)
PAK4 = PAK4 (UniProt O96013)
PBK = PBK (UniProt Q96KB5)
PDGFRB = PDGFRB (UniProt P09619)
PDK1 = PDK1 (UniProt Q15118)
PDPK1 = PDPK1 (UniProt O15530)
PIK4CA = PIK4CA (UniProt P42356)
PIK4CB = PIK4CB (UniProt Q9UBF8)
PLK1 = PLK1 (UniProt P53350)
PRKAA1 = PRKAA1 (UniProt Q13131)
PRKCA = PRKCA (UniProt P17252)
PTK2 = PTK2 (UniProt Q05397)
PTK2B = PTK2B (UniProt Q14289)
RAF1 = RAF1 (UniProt P04049)
[1] = target: RAF1_S257L (clone: RAF1_mut) (UniProt P04049)

| SMILES | kinase-Nluc reporter destabilization hit call (MAPK1) | kinase-Nluc reporter destabilization hit call (MAPK4) | kinase-Nluc reporter destabilization hit call (MAPKAPK2) | kinase-Nluc reporter destabilization hit call (MKNK1) | kinase-Nluc reporter destabilization hit call (NTRK2) | kinase-Nluc reporter destabilization hit call (NTRK3) | kinase-Nluc reporter destabilization hit call (PAK4) | kinase-Nluc reporter destabilization hit call (PBK) | kinase-Nluc reporter destabilization hit call (PDGFRB) | kinase-Nluc reporter destabilization hit call (PDK1) | kinase-Nluc reporter destabilization hit call (PDPK1) | kinase-Nluc reporter destabilization hit call (PIK4CA) | kinase-Nluc reporter destabilization hit call (PIK4CB) | kinase-Nluc reporter destabilization hit call (PLK1) | kinase-Nluc reporter destabilization hit call (PRKAA1) | kinase-Nluc reporter destabilization hit call (PRKCA) | kinase-Nluc reporter destabilization hit call (PTK2) | kinase-Nluc reporter destabilization hit call (PTK2B) | kinase-Nluc reporter destabilization hit call (RAF1) | kinase-Nluc reporter destabilization hit call [1] |
| --- | --- | --- | --- | --- | --- | --- | --- | --- | --- | --- | --- | --- | --- | --- | --- | --- | --- | --- | --- | --- |
| Cc1nc(NC(=O)N2CCC[C@H]2C(N)=O)sc1-c1csc(C(C)(C)C)n1 (10 µM) | inactive: 0 | inactive: 0 | inactive: 0 | inactive: 0 | inactive: 0 | inactive: 0 | inactive: 0 | inactive: 0 | inactive: 0 | inactive: 0 | inactive: 0 | inactive: 0 | inactive: 0 | inactive: 0 | inactive: 0 | inactive: 0 | inactive: 0 | inactive: 0 | inactive: 0 | inactive: 0 |
| Cc1ccc(Nc2c(C(N)=O)cnc3cc(-c4ccncc4)ccc23)cc1C [cFMS Receptor Inhibitor II] (10 µM) | inactive: 0 | inactive: 0 | inactive: 0 | inactive: 0 | inactive: 0 | inactive: 0 | inactive: 0 | inactive: 0 | inactive: 0 | inactive: 0 | inactive: 0 | inactive: 0 | inactive: 0 | inactive: 0 | inactive: 0 | inactive: 0 | inactive: 0 | inactive: 0 | inactive: 0 | inactive: 0 |
| Cc1nc(Nc2ncc(C(=O)Nc3c(C)cccc3Cl)s2)cc(N2CCN(C(=O)CCCCCCC(=O)N[C@H](C(=O)N3C[C@H](O)C[C@H]3C(=O)NCc3ccc(-c4scnc4C)cc3)C(C)(C)C)CC2)n1 (2.5 µM) | inactive: 0 | inactive: 0 | inactive: 0 | inactive: 0 | inactive: 0 | inactive: 0 | inactive: 0 | inactive: 0 | inactive: 0 | inactive: 0 | inactive: 0 | inactive: 0 | inactive: 0 | inactive: 0 | inactive: 0 | inactive: 0 | inactive: 0 | inactive: 0 | inactive: 0 | inactive: 0 |
| Cc1occ2c1C(=O)c1c(O)ccc(O)c1C2 (2.5 µM) | inactive: 0 | inactive: 0 | inactive: 0 | inactive: 0 | inactive: 0 | inactive: 0 | inactive: 0 | inactive: 0 | inactive: 0 | inactive: 0 | inactive: 0 | inactive: 0 | inactive: 0 | inactive: 0 | inactive: 0 | inactive: 0 | inactive: 0 | inactive: 0 | inactive: 0 | inactive: 0 |
| Cc1ccc(-n2c(-c3ccc(O)cc3O)n[nH]c2=O)cc1 (10 µM) | inactive: 0 | inactive: 0 | inactive: 0 | inactive: 0 | inactive: 0 | inactive: 0 | inactive: 0 | inactive: 0 | inactive: 0 | inactive: 0 | inactive: 0 | inactive: 0 | inactive: 0 | inactive: 0 | inactive: 0 | inactive: 0 | inactive: 0 | inactive: 0 | inactive: 0 | active: 1 |
| Cc1cc(F)c(Nc2ncnc3cc(OCc4ccccc4)ccc23)cc1O (10 µM) | inactive: 0 | inactive: 0 | inactive: 0 | inactive: 0 | inactive: 0 | inactive: 0 | inactive: 0 | inactive: 0 | inactive: 0 | inactive: 0 | inactive: 0 | inactive: 0 | inactive: 0 | inactive: 0 | inactive: 0 | inactive: 0 | inactive: 0 | inactive: 0 | inactive: 0 | inactive: 0 |
| CS(=O)(=O)N1CCc2c(-c3cnc(N)nc3)nc(N3CCOCC3)nc21 (10 µM) | inactive: 0 | inactive: 0 | inactive: 0 | inactive: 0 | inactive: 0 | inactive: 0 | inactive: 0 | inactive: 0 | inactive: 0 | inactive: 0 | inactive: 0 | inactive: 0 | inactive: 0 | inactive: 0 | inactive: 0 | inactive: 0 | inactive: 0 | inactive: 0 | inactive: 0 | inactive: 0 |
| Cc1c(C(=O)Nc2ccc(Oc3ccnc4cc(OCC(C)(C)O)ccc34)c(F)c2)c(=O)n(-c2ccccc2)n1C [Ningetinib Tosylate] (10 µM) | inactive: 0 | inactive: 0 | inactive: 0 | inactive: 0 | inactive: 0 | inactive: 0 | inactive: 0 | inactive: 0 | inactive: 0 | inactive: 0 | inactive: 0 | inactive: 0 | inactive: 0 | inactive: 0 | inactive: 0 | inactive: 0 | inactive: 0 | inactive: 0 | inactive: 0 | inactive: 0 |
| CNS(=O)(=O)Nc1nccc(Cc2c(C)c3ccc(Oc4ncccn4)cc3oc2=O)c1F (10 µM) | inactive: 0 | inactive: 0 | inactive: 0 | inactive: 0 | inactive: 0 | inactive: 0 | inactive: 0 | inactive: 0 | inactive: 0 | inactive: 0 | inactive: 0 | inactive: 0 | inactive: 0 | inactive: 0 | inactive: 0 | inactive: 0 | inactive: 0 | inactive: 0 | inactive: 0 | inactive: 0 |
| COc1ccc(C2CC(c3ccc(Cl)cc3)=NN2c2nc(-c3ccncc3)cs2)cc1 (stereo not given) [mTOR inhibitor-8] (10 µM) | inactive: 0 | inactive: 0 | inactive: 0 | inactive: 0 | inactive: 0 | inactive: 0 | inactive: 0 | inactive: 0 | inactive: 0 | inactive: 0 | inactive: 0 | inactive: 0 | inactive: 0 | inactive: 0 | inactive: 0 | inactive: 0 | inactive: 0 | inactive: 0 | inactive: 0 | inactive: 0 |
| Cn1cc(-c2ccc3nnc(Sc4ccc5nn(C)cc5c4)n3n2)cn1 [c-Met inhibitor 1] (10 µM) | inactive: 0 | inactive: 0 | inactive: 0 | inactive: 0 | inactive: 0 | inactive: 0 | inactive: 0 | inactive: 0 | inactive: 0 | inactive: 0 | inactive: 0 | inactive: 0 | inactive: 0 | inactive: 0 | inactive: 0 | inactive: 0 | inactive: 0 | inactive: 0 | inactive: 0 | inactive: 0 |
| O=C(N=c1sccn1Cc1ccccc1)c1c[nH]c2ncccc12 (10 µM) | inactive: 0 | inactive: 0 | inactive: 0 | inactive: 0 | inactive: 0 | inactive: 0 | inactive: 0 | inactive: 0 | inactive: 0 | inactive: 0 | inactive: 0 | inactive: 0 | inactive: 0 | inactive: 0 | inactive: 0 | inactive: 0 | inactive: 0 | inactive: 0 | inactive: 0 | inactive: 0 |
| C=CC(=O)N1CCN(c2nc(OC[C@@H]3CCCN3C)nc3c2CCN(c2cccc4cccc(C)c24)C3)C[C@@H]1CC#N (2.5 µM) | inactive: 0 | inactive: 0 | inactive: 0 | inactive: 0 | inactive: 0 | inactive: 0 | inactive: 0 | inactive: 0 | inactive: 0 | inactive: 0 | inactive: 0 | inactive: 0 | inactive: 0 | inactive: 0 | inactive: 0 | inactive: 0 | inactive: 0 | inactive: 0 | inactive: 0 | inactive: 0 |
| Cn1c(=O)c(Oc2ccc(F)cc2F)cc2cnc(NC(CCO)CCO)nc21 [Pamapimod] (10 µM) | inactive: 0 | inactive: 0 | inactive: 0 | inactive: 0 | inactive: 0 | inactive: 0 | inactive: 0 | inactive: 0 | inactive: 0 | inactive: 0 | inactive: 0 | inactive: 0 | inactive: 0 | inactive: 0 | inactive: 0 | inactive: 0 | inactive: 0 | inactive: 0 | inactive: 0 | inactive: 0 |
| C=CCN(/C=C1/C(=O)O[C@H](COC)[C@@]2(C)C1=C(O)C(=O)C1=C2[C@H](OC(C)=O)C[C@]2(C)C(=O)CC[C@@H]12)CC=C [Sonolisib] (2.5 µM) | inactive: 0 | inactive: 0 | inactive: 0 | inactive: 0 | inactive: 0 | inactive: 0 | inactive: 0 | inactive: 0 | inactive: 0 | inactive: 0 | inactive: 0 | inactive: 0 | inactive: 0 | inactive: 0 | inactive: 0 | inactive: 0 | inactive: 0 | inactive: 0 | inactive: 0 | inactive: 0 |

A draw from above in order of length of the SMILES, smallest number first:

| SMILES | kinase-Nluc reporter destabilization hit call (MAPK1) | kinase-Nluc reporter destabilization hit call (MAPK4) | kinase-Nluc reporter destabilization hit call (MAPKAPK2) | kinase-Nluc reporter destabilization hit call (MKNK1) | kinase-Nluc reporter destabilization hit call (NTRK2) | kinase-Nluc reporter destabilization hit call (NTRK3) | kinase-Nluc reporter destabilization hit call (PAK4) | kinase-Nluc reporter destabilization hit call (PBK) | kinase-Nluc reporter destabilization hit call (PDGFRB) | kinase-Nluc reporter destabilization hit call (PDK1) | kinase-Nluc reporter destabilization hit call (PDPK1) | kinase-Nluc reporter destabilization hit call (PIK4CA) | kinase-Nluc reporter destabilization hit call (PIK4CB) | kinase-Nluc reporter destabilization hit call (PLK1) | kinase-Nluc reporter destabilization hit call (PRKAA1) | kinase-Nluc reporter destabilization hit call (PRKCA) | kinase-Nluc reporter destabilization hit call (PTK2) | kinase-Nluc reporter destabilization hit call (PTK2B) | kinase-Nluc reporter destabilization hit call (RAF1) | kinase-Nluc reporter destabilization hit call [1] |
| --- | --- | --- | --- | --- | --- | --- | --- | --- | --- | --- | --- | --- | --- | --- | --- | --- | --- | --- | --- | --- |
| Cc1occ2c1C(=O)c1c(O)ccc(O)c1C2 (2.5 µM) | inactive: 0 | inactive: 0 | inactive: 0 | inactive: 0 | inactive: 0 | inactive: 0 | inactive: 0 | inactive: 0 | inactive: 0 | inactive: 0 | inactive: 0 | inactive: 0 | inactive: 0 | inactive: 0 | inactive: 0 | inactive: 0 | inactive: 0 | inactive: 0 | inactive: 0 | inactive: 0 |
| Cn1cc(-c2ccc3nnc(Sc4ccc5nn(C)cc5c4)n3n2)cn1 [c-Met inhibitor 1] (10 µM) | inactive: 0 | inactive: 0 | inactive: 0 | inactive: 0 | inactive: 0 | inactive: 0 | inactive: 0 | inactive: 0 | inactive: 0 | inactive: 0 | inactive: 0 | inactive: 0 | inactive: 0 | inactive: 0 | inactive: 0 | inactive: 0 | inactive: 0 | inactive: 0 | inactive: 0 | inactive: 0 |
| C=CCN(/C=C1/C(=O)O[C@H](COC)[C@@]2(C)C1=C(O)C(=O)C1=C2[C@H](OC(C)=O)C[C@]2(C)C(=O)CC[C@@H]12)CC=C [Sonolisib] (2.5 µM) | inactive: 0 | inactive: 0 | inactive: 0 | inactive: 0 | inactive: 0 | inactive: 0 | inactive: 0 | inactive: 0 | inactive: 0 | inactive: 0 | inactive: 0 | inactive: 0 | inactive: 0 | inactive: 0 | inactive: 0 | inactive: 0 | inactive: 0 | inactive: 0 | inactive: 0 | inactive: 0 |
